The values that follow come from paper PMC4812327.

No constants are given. Whether binding was seen depends on the method and setting. Binding seen in cells or lysates may run through a third protein. Some entries that bind do so weakly or less than the wild type. For part of these data: Where a sequence is shown, tags or fusion partners need not be part of it.

The target in one assay is T1, Mgr (Drosophila) (UniProt Q9VGP6).
T1 sequence: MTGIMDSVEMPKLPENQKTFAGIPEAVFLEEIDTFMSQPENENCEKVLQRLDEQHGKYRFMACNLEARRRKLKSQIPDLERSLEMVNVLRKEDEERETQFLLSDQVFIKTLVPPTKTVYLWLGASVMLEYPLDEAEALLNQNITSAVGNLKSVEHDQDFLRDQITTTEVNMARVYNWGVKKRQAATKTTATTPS
Description: co-IP; co-immunoprecipitation assays of Fig. S10; source of proteins and antibodies not told in the text shown.

Assay [1] deals with T2, Myc-tagged Mgr (Drosophila) (UniProt Q9VGP6).
T2 sequence: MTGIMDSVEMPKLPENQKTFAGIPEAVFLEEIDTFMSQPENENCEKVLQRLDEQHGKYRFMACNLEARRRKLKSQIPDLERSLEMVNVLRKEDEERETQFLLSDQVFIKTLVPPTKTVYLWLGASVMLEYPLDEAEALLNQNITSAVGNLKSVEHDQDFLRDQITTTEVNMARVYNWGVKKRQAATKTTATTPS
The experiment in a line: co-IP; S2 cells co-expressing Flag- and Myc-tagged proteins, harvested 48 h after transfection; lysate immunoprecipitated with mouse anti-Flag or anti-Myc overnight at 4 °C, Protein A/G beads, western blot.

Assay [2] concerns the target T3, Flag-tagged Pfdn2 (Drosophila) (UniProt Q9VTE5).
T3 sequence: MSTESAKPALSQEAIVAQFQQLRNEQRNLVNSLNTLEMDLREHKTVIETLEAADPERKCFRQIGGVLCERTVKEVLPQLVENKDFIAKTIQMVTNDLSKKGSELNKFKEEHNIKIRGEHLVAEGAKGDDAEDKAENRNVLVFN
Described as above.

B1: Partner of Inscuteable (Pins) (protein, UniProt Q9VB22 1-658)
chain: MSSLSASAENVSSLGLGSGGGGTTSHDGNSQQGSGSDGGSSMCLELALEGERLCKAGDCRAGVAFFQAAIQAGTEDLRTLSAIYSQLGNAYFYLGDYNKAMQYHKHDLTLAKSMNDRLGEAKSSGNLGNTLKVMGRFDEAAICCERHLTLARQLGDRLSEGRALYNLGNVYHAKGKHLGQRNPGKFGDDVKEALTRAVEFYQENLKLMRDLGDRGAQGRACGNLGNTYYLLGDFQAAIEHHQERLRIAREFGDRAAERRANSNLGNSHIFLGQFEDAAEHYKRTLALAVELGEREVEAQSCYSLGNTYTLLHEFNTAIEYHNRHLAIAQELGDRIGEARACWSLGNAHSAIGGHERALKYAEQHLQLAKELHDPVGESTARVNISDLRKLLGMPDSEPSPTEEEARSTASDHSASGNQSDGSENSQGRMVRVRRQSMEQLDLIKITPDGKRMQEEKLRAQATRKAKDDDFFEMLSRSQSKRMDDQRCSIKVNPAGAPAVATGATRKPLVQQNSLFVDPTNLPGLKSPSSANPSAIGHGPLARSATTTQQPDDDFLDMLMRCQGSRLEEQRSELPRPNVTMDAEAEAPPRSVPEAAVPGAPRGQTGRGATVPDEDFFSLIMKVQSGRMEDQRASIPFRNANNNNNSRSNNNGSAGGAGK
For the molecule B1, the binding result in the assay with Mgr (Drosophila) is “no binding”.

B2: Flag-tagged Pfdn2 (protein, UniProt Q9VTE5 1-143)
chain: MSTESAKPALSQEAIVAQFQQLRNEQRNLVNSLNTLEMDLREHKTVIETLEAADPERKCFRQIGGVLCERTVKEVLPQLVENKDFIAKTIQMVTNDLSKKGSELNKFKEEHNIKIRGEHLVAEGAKGDDAEDKAENRNVLVFN
As for B2, the binding entry in assay [1] is given as “binds”.

B3: Myc-tagged Pfdn5 (protein, UniProt Q9VCZ8 1-168)
chain: MAATPSAPAKSEMIDLTKLSPEQLIQIKQEFEQEITNVQDSLSTLHGCQAKYAGSKEALGTFQPNWENRQILVPLTSSMYVPGRVKDLNRFVIDIGTGYYIEKDLEGSKDYFKRRVEYVQEQIEKIEKIHLQKTRFYNSVMSVLEMKQAAAAKLQSQQQSQPAVTQSS
For B3, the binding result in assay [2] is listed as “binds”.
